Reference: article PMC10199020
These are yes or no findings as the source states them, for the method shown. Binding seen in cells or lysates may run through a third protein. Some binding calls cover weakened binding; strength is not graded here.

Chains of the proteins cited; added tags and fusions are not shown. Lines headed by an entry give the natural chain unless they say otherwise; changes in a name come on top. A line that says so, or that is headed by a name, gives the form on record, which may keep a tag or linker. Residues count along the entry.
NL-IL23R (Q5VWK5, residues 24-629): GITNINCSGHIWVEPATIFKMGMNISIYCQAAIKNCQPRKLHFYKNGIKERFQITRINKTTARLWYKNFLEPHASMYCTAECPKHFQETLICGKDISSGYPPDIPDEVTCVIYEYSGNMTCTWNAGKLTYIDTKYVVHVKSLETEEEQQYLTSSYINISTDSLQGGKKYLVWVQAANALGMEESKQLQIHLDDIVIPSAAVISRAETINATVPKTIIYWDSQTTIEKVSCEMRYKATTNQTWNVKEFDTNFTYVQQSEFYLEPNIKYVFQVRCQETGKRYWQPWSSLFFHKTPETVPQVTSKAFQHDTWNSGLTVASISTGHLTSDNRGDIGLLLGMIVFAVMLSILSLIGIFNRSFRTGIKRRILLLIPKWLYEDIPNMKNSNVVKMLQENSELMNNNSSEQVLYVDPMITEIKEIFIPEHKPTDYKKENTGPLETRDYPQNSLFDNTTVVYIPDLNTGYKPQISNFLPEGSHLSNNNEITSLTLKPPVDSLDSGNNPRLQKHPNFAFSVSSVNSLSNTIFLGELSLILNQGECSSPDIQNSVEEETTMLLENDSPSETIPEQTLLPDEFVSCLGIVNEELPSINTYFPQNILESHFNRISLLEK
NL-IL23R C115Y (Q5VWK5, form named): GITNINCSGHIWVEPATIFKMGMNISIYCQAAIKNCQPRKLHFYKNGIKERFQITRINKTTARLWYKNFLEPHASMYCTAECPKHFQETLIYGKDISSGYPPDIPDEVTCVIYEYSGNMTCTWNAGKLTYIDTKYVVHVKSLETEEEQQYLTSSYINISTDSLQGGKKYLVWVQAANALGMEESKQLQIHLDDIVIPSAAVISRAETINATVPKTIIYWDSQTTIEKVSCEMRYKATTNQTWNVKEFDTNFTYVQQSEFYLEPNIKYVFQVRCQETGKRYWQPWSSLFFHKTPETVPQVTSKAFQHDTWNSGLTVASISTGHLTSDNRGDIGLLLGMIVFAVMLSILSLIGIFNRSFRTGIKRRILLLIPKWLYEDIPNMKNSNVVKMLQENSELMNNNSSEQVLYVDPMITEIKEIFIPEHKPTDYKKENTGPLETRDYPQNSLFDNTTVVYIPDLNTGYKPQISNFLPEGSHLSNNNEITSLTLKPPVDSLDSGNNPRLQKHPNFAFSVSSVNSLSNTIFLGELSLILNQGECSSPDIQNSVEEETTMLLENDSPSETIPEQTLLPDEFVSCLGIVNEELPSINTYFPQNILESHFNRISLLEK
UniProt Q9NPF7: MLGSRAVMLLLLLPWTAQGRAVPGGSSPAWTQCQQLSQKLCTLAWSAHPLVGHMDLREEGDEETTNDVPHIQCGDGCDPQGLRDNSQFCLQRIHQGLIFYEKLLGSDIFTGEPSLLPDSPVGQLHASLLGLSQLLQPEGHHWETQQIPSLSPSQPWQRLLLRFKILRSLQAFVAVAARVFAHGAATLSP

Experiments:
NL-IL23R [1] = biological target: NL-IL23R (UniProt Q5VWK5); assay: FRET or BRET; NanoBRET competition on living transfected HEK293T cells; 75 nM P630-TMR displaced by unlabelled antagonist (concentration series or a single concentration); 1 h at 37 °C in HBSS with 1 mg/mL BSA; only the binder purified
NL-IL23R [2] = biological target: NL-IL23R (UniProt Q5VWK5); assay: FRET or BRET; NanoBRET saturation binding of IL23-TMR or P630-TMR on cells expressing wildtype or C115Y mutant receptor (Fig. 7); co-expression of IL12Rβ1 not stated; only the binder purified
NL-IL23R C115Y = NL-IL23R C115Y (UniProt Q5VWK5); assay: as above

Substance	binding (NL-IL23R [1])	binding (NL-IL23R [2])	binding (NL-IL23R C115Y)
IL-23 (from UniProt Q9NPF7 20-189; P29460 23-328) (ligand)	binds	–	–
IL23-TMR (TAMRA labelled version of IL-23) (from UniProt Q9NPF7 20-189; P29460 23-328) (ligand)	–	binds	no binding
